## Results of single-concentration screens

The chains behind the UniProt entries cited, without tags or fusion partners. Residues count along the entry.
UniProt A4I591, 1-473: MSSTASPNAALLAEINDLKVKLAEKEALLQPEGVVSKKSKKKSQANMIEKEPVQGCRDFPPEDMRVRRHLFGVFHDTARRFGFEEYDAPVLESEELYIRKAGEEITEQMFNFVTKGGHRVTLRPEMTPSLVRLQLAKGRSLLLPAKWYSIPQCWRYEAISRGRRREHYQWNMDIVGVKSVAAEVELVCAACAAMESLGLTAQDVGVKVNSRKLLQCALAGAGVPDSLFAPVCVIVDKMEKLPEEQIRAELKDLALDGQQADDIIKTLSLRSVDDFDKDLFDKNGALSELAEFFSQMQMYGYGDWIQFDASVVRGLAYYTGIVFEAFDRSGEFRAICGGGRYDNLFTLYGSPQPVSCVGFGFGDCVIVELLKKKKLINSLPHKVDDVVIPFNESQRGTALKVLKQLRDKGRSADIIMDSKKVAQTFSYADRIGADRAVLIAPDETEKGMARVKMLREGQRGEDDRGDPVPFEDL
UniProt P9WPC5, whole entry: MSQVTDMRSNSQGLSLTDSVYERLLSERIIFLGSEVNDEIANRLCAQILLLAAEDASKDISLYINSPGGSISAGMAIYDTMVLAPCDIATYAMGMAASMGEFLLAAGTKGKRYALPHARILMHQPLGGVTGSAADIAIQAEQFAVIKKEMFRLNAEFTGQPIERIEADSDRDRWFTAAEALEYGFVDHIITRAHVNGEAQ
UniProt P9WPC3, whole entry partner: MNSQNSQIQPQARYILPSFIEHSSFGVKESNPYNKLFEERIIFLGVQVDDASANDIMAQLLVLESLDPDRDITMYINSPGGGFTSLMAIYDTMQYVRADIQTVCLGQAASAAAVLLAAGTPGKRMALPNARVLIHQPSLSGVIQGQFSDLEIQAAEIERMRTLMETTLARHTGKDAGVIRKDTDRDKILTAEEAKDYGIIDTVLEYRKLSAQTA
UniProt Q4DA54, 1-478: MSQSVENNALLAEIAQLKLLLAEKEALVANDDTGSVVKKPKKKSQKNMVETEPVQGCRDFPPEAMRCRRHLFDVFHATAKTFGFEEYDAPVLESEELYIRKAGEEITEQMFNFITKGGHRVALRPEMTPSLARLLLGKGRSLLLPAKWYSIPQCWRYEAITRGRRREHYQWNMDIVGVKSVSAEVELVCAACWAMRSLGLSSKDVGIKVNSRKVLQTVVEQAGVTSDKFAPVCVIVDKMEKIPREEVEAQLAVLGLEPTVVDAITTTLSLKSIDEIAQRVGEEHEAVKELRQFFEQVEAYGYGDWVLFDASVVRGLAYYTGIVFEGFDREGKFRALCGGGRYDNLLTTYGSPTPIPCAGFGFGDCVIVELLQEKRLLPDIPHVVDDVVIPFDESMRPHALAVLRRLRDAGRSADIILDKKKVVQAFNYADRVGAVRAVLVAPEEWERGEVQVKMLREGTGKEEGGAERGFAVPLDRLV

Toxoplasma: 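Assay of Toxoplasma gondii numbers, read through their beta-galactosidase reporter with a colour substrate. Tested at 10 µM. The record gives no direction; the compounds picked for IC50 retests had high values, so higher reads as fewer parasites. About 67,000 compounds were tested under these conditions; 0.38% (about 260) showed 50% or more at least once.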
T. brucei: 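Whole-parasite assay of Trypanosoma brucei over 72 hours; the read-out is not stated. Compounds at 30 µM. Direction is inferred from retests: higher values go with stronger inhibition. Values scatter widely below zero; nearly all retest evidence comes from the higher of the two concentrations used. About 64,000 compounds were tested under these conditions; 1.5% (about 940) showed 50% or more at least once.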
LiHisRS: 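Histidine-tRNA ligase, Leishmania infantum (UniProt A4I591). Enzyme assay of histidyl-tRNA synthetase; the read-out is not stated. Concentration: 30 µM. The record gives no direction; compounds that gave an IC50 in retests scored well above the rest, so higher reads as stronger inhibition. The assay is labelled LdHisRS but filed under L. infantum. Of about 69,000 compounds tested this way, about 410 (0.6%) reached 50% or more in at least one test.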
ClpP1P2: 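Protease assay of ClpP1P2, read by the AMC dye that it sets free. Target: ClpP1P2, Mycobacterium tuberculosis (UniProt P9WPC5 and UniProt P9WPC3). Compounds at 50 µM. Higher reads as stronger inhibition, judged from the few compounds that gave an IC50. Most other retested compounds had strongly negative values. Of about 69,000 compounds tested this way, about 10 (0.015%) reached 50% or more in at least one test.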
TcHisRS: 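Histidine-tRNA ligase, Trypanosoma cruzi CL Brener (UniProt Q4DA54). Enzyme assay of histidyl-tRNA synthetase; the read-out is not stated. Tested at 30 µM. Direction is inferred from retests: higher values go with stronger inhibition. Of about 69,000 compounds tested this way, about 31 (0.045%) reached 50% or more in at least one test.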

The filed quantity is “Percent Effect” (%). How 0% and 100% were set is not recorded. Most values in the screen are low, and negative values occur. Compounds were drawn at random from those tested, without regard to their results. A dash means the value is not listed here; it may have been measured.

* CC(NCCN1CCN(C(=O)C2CCCC2)CC1)c1ccccn1 (stereo unspecified) | Toxoplasma: 1.593%; T. brucei: -15.79%; LiHisRS: 1.587%; ClpP1P2: 6.902%; TcHisRS: -1.01%
* COc1ccc(-c2nc(C)cc(SCC(N)=O)n2)cc1 | Toxoplasma: 17.45%; T. brucei: 0.5885%; LiHisRS: 12.09%; ClpP1P2: 12.32%; TcHisRS: 5.155%
* Cn1cccc1C(=O)N1CCC2(CC1)CN(c1ccccn1)CCO2.O=C(O)C(F)(F)F | Toxoplasma: 16.28%; T. brucei: 16.67%
* [H][C@@]12CCN(C(=O)c3c(C)noc3C)C[C@]1(c1nc(C)no1)CCO2 | Toxoplasma: 9.236%; T. brucei: 8.314%
* CN1CCN(CC(NCc2ccc(F)cc2)c2ccccc2)CC1 (stereo unspecified) | Toxoplasma: 10.69%; T. brucei: 15.25%; LiHisRS: 10.26%; ClpP1P2: -7.721%; TcHisRS: 3.614%
* Cc1cn(CC(=O)NC2CCN(C(=O)C3CC3)CC2)c2ccccc12 | Toxoplasma: 7.283%; T. brucei: 20.9%; LiHisRS: 20.75%; ClpP1P2: 0.7167%; TcHisRS: 0.8475%
* NC(=O)CC1CCN(S(=O)(=O)N2CCCC2c2ccco2)CC1 (stereo unspecified) | Toxoplasma: 10.13%; T. brucei: -20.56%; LiHisRS: 2.381%; ClpP1P2: -3.039%; TcHisRS: -3.529%
* N[C@@H]1CC[C@H](C(=O)NCc2ccc3nonc3c2)C1 | Toxoplasma: -3.245%; T. brucei: -27.88%; LiHisRS: 11.67%; ClpP1P2: -0.01625%; TcHisRS: 5.195%
* CSCC[C@@H](CO)n1ccnc1-c1ccc(C)o1 | Toxoplasma: 10.33%; T. brucei: -67.14%; LiHisRS: 15.08%; ClpP1P2: -1.419%; TcHisRS: 11.76%
* c1ccc(NCc2cn3c(n2)CN(Cc2cccnc2)CC3)nc1 | LiHisRS: 13.53%; ClpP1P2: -1.053%; TcHisRS: 2.762%
* O=C(NC1CCc2c(ccc(=O)n2CC2CC2)C1)c1cscn1 (stereo unspecified) | Toxoplasma: 13.61%; T. brucei: -82.65%; LiHisRS: 16%; ClpP1P2: 9.783%; TcHisRS: 7.216%
* Cc1ccnc(C2(C)CCCN2S(=O)(=O)c2c(C)noc2C)n1 (stereo unspecified) | Toxoplasma: 6.356%; T. brucei: 0.1362%; LiHisRS: 5.634%; ClpP1P2: -4.965%; TcHisRS: -0.7576%
* COc1ccc(CN)c(OC(F)F)c1 | LiHisRS: -12.82%; ClpP1P2: -2.606%; TcHisRS: 3.448%
* COCCCNS(=O)(=O)c1cc(Br)sc1C | Toxoplasma: -0.6058%; T. brucei: -8.814%; LiHisRS: 14.29%; ClpP1P2: -3.486%; TcHisRS: 1.538%
* CCC(=O)NCCNC(=O)c1nn(C)c(C)c1Cl | Toxoplasma: -0.2533%; T. brucei: -14.81%; LiHisRS: 1.149%; ClpP1P2: -8.805%; TcHisRS: 3.093%
* [H][C@]12CCN(Cc3ccc(OCC)c(CO)c3)C[C@]([H])(CC1)N2 | Toxoplasma: 6.906%; T. brucei: 5.082%
* CC(=O)N1CCCC2(CCC(=O)N2Cc2cccnc2)C1 (stereo unspecified) | LiHisRS: 19.23%; ClpP1P2: 0.01731%; TcHisRS: 6.796%
* CCCN1CCC(N2CCN(c3cc(C)nc(COC)n3)CC2)CC1 | Toxoplasma: -0.6724%; T. brucei: -18.29%; LiHisRS: -1.695%; ClpP1P2: -10.52%; TcHisRS: 6.341%
* Cc1nn(C)c2c(NC3CCCC3)nc(C3CC3)nc12 | Toxoplasma: 23.46%; T. brucei: -35.11%; LiHisRS: 16.85%; ClpP1P2: -4.335%; TcHisRS: 4.663%
* CC(C)NC(=O)N1CCc2ncc(CN3CCOCC3)n2CC1.O=C(O)C(F)(F)F | Toxoplasma: -0.6993%
* CCc1ncc(C(=O)N2CCCN(C3CCCC3)CC2)cn1 | Toxoplasma: -2.545%; T. brucei: 4.2%; ClpP1P2: 1.405%; TcHisRS: -2.762%
* CCS(=O)(=O)N(C)CCCNC(=O)c1cc(Cl)cc2cccnc12 | Toxoplasma: -2.365%; T. brucei: -7.173%; LiHisRS: 26.32%; ClpP1P2: -7.691%; TcHisRS: 7.317%
* COc1ccc(CC2CCCN2CCCC#N)cc1 (stereo unspecified) | Toxoplasma: 0.4536%; LiHisRS: 15.38%; ClpP1P2: 0.696%; TcHisRS: 8.046%
* COCCN1CC(C(=O)NCc2ccnc(-n3cccn3)c2)CC1=O (stereo unspecified) | Toxoplasma: 5.338%; T. brucei: -14.54%; LiHisRS: 2.128%; ClpP1P2: -1.134%; TcHisRS: 0%
* COc1ccc(Br)cc1S(=O)(=O)N(C)Cc1ccc(N(C)C)cc1 | Toxoplasma: 1.606%; T. brucei: -19.65%; LiHisRS: 13.47%; ClpP1P2: 6.684%; TcHisRS: 8.287%
* Cc1cc(CNC2(c3ccccc3)CCCCC2)no1 | Toxoplasma: 3.611%; T. brucei: -0.5505%; LiHisRS: 3.125%; ClpP1P2: -0.6586%; TcHisRS: 7.182%

3 of the entries, repeated:

compound	Toxoplasma	T. brucei	LiHisRS	ClpP1P2	TcHisRS
NC(=O)CC1CCN(S(=O)(=O)N2CCCC2c2ccco2)CC1 (stereo unspecified)	10.13%	-20.56%	2.381%	-3.039%	-3.529%
O=C(NC1CCc2c(ccc(=O)n2CC2CC2)C1)c1cscn1 (stereo unspecified)	13.61%	-82.65%	16%	9.783%	7.216%
COc1ccc(CN)c(OC(F)F)c1	-	-	-12.82%	-2.606%	3.448%

The values are deposited in ChEMBL (CHEMBL3988442, “University of Dundee, Small-Polar-MMV Screening Library” (2021)).